Results from one PubChem assay

Source: PubChem BioAssay AID1159506 (NCATS, 2015).

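Genome-wide siRNA knockdown in TC32 Ewing sarcoma cells, comparing luciferase light from an NR0B1-promoter reporter with a CMV-promoter reporter 48 hours after transfection. Each siRNA was applied at 20 nM. A z-score of the log NR0B1-over-CMV signal, less the median of siRNAs with the same seed; more negative means a stronger specific loss of the NR0B1 reporter.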

The strongest results of the screen are mostly left out here. Sequences are the guide (antisense) strand, without overhang.

| siRNA | target gene | seed-corrected z-score |
|---|---|---|
| `UUGCGAAUCAGAAGUUCAG` | H3F3AP5 | 0.8937 |
| `UAUUUUCAGAGAUAGUUUG` | PRSS58 | -0.2913 |
| `UAAGCUUAAUGUAACACUG` | C1orf185 | 0.985 |
| `UGCGUUCUUAGUCUUGUAG` | E4F1 | -0.1502 |
| `AAACAGAUACAUGCGCUGG` | OR51Q1 | -0.5757 |
| `UCCGAUACCGUUUAACAGC` | CREBZF | 0.9438 |
| `UGUGGUAAUCUGCUGAGCC` | TAAR5 | -0.71 |
| `AAUCGAAAAACUGAUGAUG` | AHCTF1 | -0.2986 |
| `UUUGAGUCAUUUUCUCCCG` | ACTA2 | -0.3778 |
| `UUCGCAACUGAAUAAACUG` | PRPF39 | -0.9867 |
| `UCCACUUUUAAGUCCAUGC` | GFPT2 | 0.448 |
| `UCUGGAUCUUGGACCAUCU` | CHRM4 | -1.7 |
| `UUGGUUGUAAGCAAGUUCC` | FPGT | -1.322 |
| `UAAGAGUUGAUGACCCGGG` | GGA3 | 0.5125 |
| `UUCCAUUGCAUAUUGUUCG` | MTHFD2L | 0.1855 |
| `AUUGUCUCCACUUCGAUAC` | NELL1 | 0.5605 |
| `AACCUUCUGAAUUACACUC` | SKINT1L | 0.00774 |
| `UUCUUUUACUUUCUACUAC` | TERF1P2 | -0.08574 |
| `UUACGGAUGAGGUCGGUCA` | PLA2G6 | -0.1845 |
| `UGACAUAGAGGUGCUGGGC` | IL17REL | -0.2256 |
| `UCAAGCUUAAAAGGUAACG` | SOCS6 | -0.2494 |
| `UUUCCUUUGCAAAAGUCCC` | CLEC5A | -0.0978 |
| `UUUGUAAGUAAAGCCGUUU` | UQCR10 | 0.6349 |
| `UUUCUCUCGAUCAGGACCG` | AK8 | 1.231 |
| `UCCGAUGCAGUGUUACACG` | MGMT | 0.05351 |
| `AAAGCAUAACAAUUGUUGC` | SFT2D1 | -0.5236 |
| `UUUGGAGCUGAACCUAUUG` | CLCNKB | -0.8211 |
| `UAGAGGAAACCAACCAUGG` | OR1B1 | -1.393 |
| `UGUACAUCCAUUGCCUCUG` | SH3BGRL2 | -0.2002 |
| `AAUUCGUUUAGUCCUGCUC` | SGK3 | 0.2462 |
| `AUAAUGGUAACCUUGAUUG` | TMEM9B | -0.1493 |
| `AAUCUCCUUGUAGAUGUGC` | MAPK13 | -0.4715 |
| `UUAUGGAGCCGAUGAAAGC` | CARM1 | -0.01476 |
| `UAUCAACCAACUGGGUUUC` | S100Z | 1.292 |
| `UACUCUAGGAUUUACGCCG` | DMRTA1 | -1.479 |
| `UUUGUUAUCUGAGUCGUGC` | GIMAP2 | 0.8653 |
| `UUUUUGAUCACUAAGGAAA` | OR4K14 | 0.4903 |
| `UUAGGUUUCGCACACACUC` | COMTD1 | 0.4383 |
| `UAUAGGAUAUAGGCAACUG` | TDRKH | -0.2123 |

For reference, 2 entries once more:

{"sirna": "UCUGGAUCUUGGACCAUCU", "target gene": "CHRM4", "seed-corrected z-score": "-1.7"}
{"sirna": "UGUACAUCCAUUGCCUCUG", "target gene": "SH3BGRL2", "seed-corrected z-score": "-0.2002"}